The other results are listed elsewhere or left out. Further columns of the screen follow, without active or inactive calls. Compounds called inactive in the main read-out are mostly missing here. The note in brackets gives the kind of curve behind each potency; many fits are weak.
Experiment: qHTS Assay for Lipid Storage Modulators in Drosophila S3 Cells;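 for cell number change: cells counted by Cell Tracker Red CMTPX staining in the red channel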
Conditions: BODIPY lipid droplet fluorescence, 18-24 h; for cell number change: measured here: cell count max response, cells fed with added oleic acid
Summary of the method: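 Drosophila S3 cells loaded with oleic acid (400 uM, as added) and compounds at several concentrations; lipid droplets imaged by 488-nm laser-scanning cytometry, 500–530 nm intensity and object ratio to cell channel. Percent activity normalized to 20 uM Triacsin C.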

[1] = measured here: lipid fluorescence (Fed channel) AC50, cells fed with added oleic acid
[2] = measured here: cell number channel AC50, cells fed with added oleic acid

Structure (SMILES)	cell number change [%]	AC50 [1]	AC50 [2]
CC(C)C(NC(=O)c1cccc(S(=O)(=O)N2CCOCC2)c1)C(=O)NCc1ccc(Cl)cc1 (centres undefined)	6.36	32.6 µM [falling, single point]	–
COC(=O)c1nc(NC(=O)c2ccc(Cl)cc2)n[nH]1	3.16	29.1 µM [falling, partial curve]	–
CCSc1nnc(NC(=O)c2ccc(Br)s2)s1	-10.1	23.1 µM [falling, single point]	–
Cc1ccc(/C=N/NC(=O)c2nnn(-c3nonc3N)c2CN(C)C)s1	30.2	0.58 µM [falling, single point]	29.1 µM [rising, single point]
Cc1cc(C)c2c(c1)C(=O)/C(=C/c1ccc(C(=O)O)cc1)CC2	-10.3	0.58 µM [rising, single point]	–
CCOc1ccc(C(=O)NCCCn2ccnc2)cc1	2.43	8.2 µM [rising, partial curve, poor fit]	–
COc1ccc(OC)c(C(C)NC(=O)c2ccc(Br)cc2)c1 (centres undefined)	-35.6	–	18.4 µM [falling, single point]
CC1=CCC(C(=O)O)C(C(=O)O)C1 (centres undefined)	1.18	0.58 µM [falling, full curve]	–
COC(=O)N[C@@H]1C[C@H]2[C@@H]3CC[C@H]4C[C@@H](OC)CC[C@]4(C)[C@H]3CC[C@]12C	13.2	0.731 µM [rising, partial curve, poor fit]	–
Cc1cccc(N(C(=O)CCC(=O)Nc2cc(C)on2)C(C(=O)NC2CCCC2)c2ccncc2)c1 (centres undefined)	0.862	0.58 µM [rising, single point]	–
Cc1ccc(C23CC4CC(CC(CC(=O)NC(C)(C)CO)(C4)C2)C3)cc1	-20.1	10.3 µM [falling, partial curve]	–
O=C(NNc1nc2ccccc2s1)c1ccc(F)cc1	-9.03	1.16 µM [falling, full curve, poor fit]	–
NC(N)=N/N=C/c1ccc(Br)cc1	–	4.11 µM [falling, single point]	2.06 µM [falling, partial curve]
O=C1CCCc2c1[nH]c1ccc(CN3CCCCC3)cc21	36.8	20.6 µM [rising, single point]	29.1 µM [rising, single point]
COc1ccc(C2C(C(N)=O)=C(C)Nc3nc(-c4ccccc4)nn32)cc1OC (centres undefined)	43.9	–	18.4 µM [rising, single point]
CCn1c2ccccc2c2cc(/C=N/n3c(-c4cc(C)[nH]n4)n[nH]c3=S)ccc21	-21.4	–	–
COc1cc(NC(=O)CSc2nc3cc(C)ccc3cc2C)c(C(=O)O)cc1OC	16.3	3.26 µM [falling, single point]	–
O=C(c1ccc2c(c1)OCO2)N1CCc2ccccc21	-7.62	0.231 µM [rising, full curve, poor fit]	–
COc1ccc2c(C)cc(N3CCN(c4ccc(F)cc4)CC3)nc2c1	32.7	2.91 µM [rising, partial curve]	0.58 µM [rising, full curve]
COc1cccc(C(O)c2cnc(C(C)C)n2C)c1 (centres undefined)	0.961	4.11 µM [rising, single point]	–

Structure (SMILES)	cell number change [%]	AC50 [1]	AC50 [2]
Cn1cnnc1SCC(=O)Nc1ccc(OCc2ccccc2)cc1	-13.7	–	–
CCC(=O)N1CCN(c2ccc(NC(=O)c3ccco3)cc2)CC1	5.94	–	–
C=CCOc1ccccc1/C=N/NC(=O)c1ccc(Cl)cc1Cl	44.5	9.2 µM [rising, partial curve]	5.8 µM [rising, partial curve]
COc1cc(OC)cc(C(=O)N[C@H](C(=O)NCCc2c[nH]c3ccccc23)C(C)C)c1	50.9	13 µM [rising, partial curve]	13 µM [rising, partial curve, poor fit]
Cc1cc(OC(=O)c2cccc(Cl)c2)c([N+](=O)[O-])c(=O)[nH]1	-0.236	29.1 µM [rising, single point]	–
CC(C)(C#N)Cc1cc(CC(C)(C)C#N)cc(C(C)(C)C)c1	0.971	0.0326 µM [falling, full curve, poor fit]	–
Cc1nn(C)c(C)c1NC(=O)CCSc1nc(-c2ccco2)cc(C(F)(F)F)n1	–	–	0.0517 µM [rising, full curve, poor fit]
Clc1ccc(OCCN2CCN(c3ncnc4sccc34)CC2)cc1	-34.9	–	–
O=C(O)Cn1cnc2sc3c(c2c1=O)CCCC3	1.3	–	–
CC(C)COc1ccc(CNC(=S)Nc2ccccc2)cc1Cl	-60.9	–	25.9 µM [falling, partial curve]
Cc1cccc(OCC(=O)N2CCN(S(C)(=O)=O)CC2)c1	-6.25	–	–
CC(C)Cn1cnc2c1c(=O)n(CC(=O)NN)c(=O)n2Cc1ccccc1	27.1	6.51 µM [rising, full curve, poor fit]	–
O=C(CCC(=O)c1ccc[nH]1)c1ccc(Cl)cc1	2.61	–	–
COc1ccc(/C=N/c2oc(C)c(C)c2C#N)c(OC)c1	-5.88	29.1 µM [rising, single point]	–
COc1ccc(CCNC(=O)c2cc(S(=O)(=O)N3CCOCC3)ccc2F)cc1	-6.41	–	–
CCOc1cc(C)nc(N2CCCC(C(=O)NCc3ccccc3F)C2)n1 (centres undefined)	-4	0.00461 µM [rising, full curve, poor fit]	–
COc1ccc(CC(=O)Nc2cccc(-c3nnc(-c4cccc(C)c4)o3)c2)cc1OC	-149	–	14.6 µM [falling, partial curve]
O=C(NC1CCCCCC1)c1c(O)c2ccccc2[nH]c1=O	–	–	4.61 µM [rising, single point]
Cc1ccccc1Oc1nc2ccccc2n2cnnc12	-29.2	29.1 µM [falling, single point]	–
O=c1c2cc([N+](=O)[O-])ccc2nc(CN2CCN(c3ccccn3)CC2)n1-c1ccccc1F	–	–	6.51 µM [rising, single point]

Entries above with a nitro group on carbon:
Structure (SMILES)	cell number change [%]	AC50 [1]	AC50 [2]
Cc1cc(OC(=O)c2cccc(Cl)c2)c([N+](=O)[O-])c(=O)[nH]1	-0.236	29.1 µM [rising, single point]	–
O=c1c2cc([N+](=O)[O-])ccc2nc(CN2CCN(c3ccccn3)CC2)n1-c1ccccc1F	–	–	6.51 µM [rising, single point]

Source: PubChem BioAssay AID2685 (National Center for Advancing Translational Sciences (NCATS), 2010)
